This assay deals with P388 leukemia ip, CD2F1 mice, survival T/C. Put plainly: NCI In Vivo Anticancer Drug Screen. Data for tumor model P388 Leukemia (intraperitoneal) in CD2F1 (CDF1) mice. As to conditions: T/C endpoint: median survival time, higher T/C = longer survival.
[1] abbreviates: dose: 12.5 mg/kg/injection, schedule: Q01DX009 (ip), vehicle: saline with Tween-80.
The mark [2] stands for this setting: dose: 200.0 mg/kg/injection, schedule: Q01DX009 (ip), vehicle: saline with Tween-80.
[3] abbreviates: dose: 200.0 mg/kg/injection, schedule: Q04DX003 (ip), vehicle: saline with Tween-80.
[4] abbreviates: dose: 400.0 mg/kg/injection, schedule: Q04DX003 (ip), vehicle: saline with Tween-80.
The mark [5] stands for this setting: dose: 50.0 mg/kg/injection, schedule: Q04DX003 (ip), vehicle: saline with Tween-80.

We go through 24 compounds from PubChem BioAssay AID330 (DTP/NCI, 2004).

The list shows only some results of the screen, not a fair sample: it is rich in T/C values a quarter to a half above the control, in often repeated tests (any T/C) and in doses without a T/C. Other doses and runs of a compound stand elsewhere. T/C gives the treated animals as a percentage of the vehicle group. Some entries give survivors of the animals treated and no T/C: the source files T/C as zero there, which appears to mark a toxic dose or a test without result, not a measured value. Some doses without a T/C left all or most animals alive at the check, yet need not have been tolerated: the source hardly ever lists a survival T/C far under the control, and the zero likely stands for such cases as well. Survivors were counted at the toxicity check, usually on the fifth day, unless a day is given; later deaths do not show. Schedules are NCI's codes, taken here to give the interval after Q, in days (D) or hours (H), and the number of doses after X. Where survival is the endpoint, the PubChem record calls one and a half times the control and up active, and a quarter to a half above the control has no call in these data; cut-offs in other NCI protocols can differ. Some T/C values are followed by the survivors on the day toxicity was checked, most often the fifth; where none is given, no animal had died by that day. Some doses were run more than once; their values stand side by side, smallest first.

As to `O=C(NC1CCCCC1)ON1C(=O)C2C3C=CC(C3)C2C1=O` (centres undefined), the T/C under setting [1] is 128 % of control. Also, the survivor count (dose: 50.0 mg/kg/injection, schedule: Q01DX009 (ip), vehicle: saline with Tween-80) was 4 of 6; the survivor count (dose: 100.0 mg/kg/injection, schedule: Q01DX009 (ip), vehicle: saline with Tween-80) is 2 of 6; the survivor count under setting [2] is 0 of 6.
As to `CC(Cl)(C=O)c1ccccc1` (centres undefined), the survivor count (dose: 240.0 mg/kg/injection, schedule: Q01DX005 (ip), vehicle: saline with Tween-80) is 0 of 6.
Regarding `Nc1nc(N)c2cc(CCc3ccccc3)ccc2n1`, under setting [3], the survivor count is 0 of 6.
For `COc1ccc2nc3cc(Cl)ccc3c(NCCCCNc3c4ccc(Cl)cc4nc4ccc(OC)nc34)c2n1`, the survivor count under setting [4] is listed as 6 of 6.
Take `NC(C(=O)O)c1ccc(CBr)cc1` (centres undefined): under setting [5], the T/C was 142 [5 of 6 alive] and 149 % of control. Moreover, under setting [3], the T/C was 144 % of control [4 of 6 alive] and the survivor count is 4 of 6.
For the compound `COC(=O)C(CSCc1ccccc1)NC(=O)C(CSCc1ccccc1)NC(=O)CCNC(=O)c1ccccc1` (centres undefined), under “dose: 200.0 mg/kg/injection, schedule: Q01DX009 (ip), vehicle: distilled water + Tween-80”, the T/C was 125 % of control.
On to `c1ccc2c(Nc3ccc(C4=NCCN4)cc3)nnc(Nc3ccc(C4=NCCN4)cc3)c2c1`, for which the T/C by setting is: (dose: 25.0 mg/kg/injection, schedule: Q04DX003 (ip), vehicle: saline with Tween-80) 127 % of control; under setting [5], 127 % of control. Moreover, the survivor count is, setting by setting: under setting [3], 0 of 6; under setting [4], 0 of 6.
Turning to `CCOc1cc2c(cc1C(C)c1ccc(OC)cc1)OCO2` (centres undefined), the T/C (dose: 100.0 mg/kg/injection, schedule: Q01DX005 (ip), vehicle: distilled water + alcohol) is 125 % of control. Further, the survivor count (dose: 200.0 mg/kg/injection, schedule: Q01DX005 (ip), vehicle: distilled water + alcohol) is reported as 3 of 5.
Consider `Cc1ccc(C[N+](C)(C)CCCCCOc2c(Br)cc(Br)cc2Br)o1`, for which the survivor count runs as follows: (dose: 25.0 mg/kg/injection, schedule: Q04DX003 (ip), vehicle: Klucel (hydroxypropylcellulose) (HPC)) 3 of 6; (dose: 50.0 mg/kg/injection, schedule: Q04DX003 (ip), vehicle: Klucel (hydroxypropylcellulose) (HPC)) 3 of 6; (dose: 100.0 mg/kg/injection, schedule: Q04DX003 (ip), vehicle: Klucel (hydroxypropylcellulose) (HPC)) 0 of 6; (dose: 200.0 mg/kg/injection, schedule: Q04DX003 (ip), vehicle: Klucel (hydroxypropylcellulose) (HPC)) 0 of 6; (dose: 400.0 mg/kg/injection, schedule: Q04DX003 (ip), vehicle: Klucel (hydroxypropylcellulose) (HPC)) 0 of 6.
For `N#CC1CCCC(C#N)N1` (centres undefined), the survivor count (dose: 50.0 mg/kg/injection, schedule: Q01DX005 (ip), vehicle: saline) was 0 of 5; the survivor count (dose: 100.0 mg/kg/injection, schedule: Q01DX005 (ip), vehicle: saline) is 0 of 5; the survivor count (dose: 200.0 mg/kg/injection, schedule: Q01DX005 (ip), vehicle: saline) was 0 of 5.
As for `Cc1ccc2ccc(CC(O)(c3ccccc3)c3ccccc3)nc2c1`, the survivor count under setting [2] was 6 of 6.
As for `COc1ccc2c3c([nH]c2c1[N+](=O)[O-])C(C)N(C)CC3` (centres undefined), the survivor count runs as follows: (dose: 34.0 mg/kg/injection, schedule: Q01DX005 (ip), vehicle: Klucel (hydroxypropylcellulose) (HPC)) 2 of 6; (dose: 68.0 mg/kg/injection, schedule: Q01DX005 (ip), vehicle: Klucel (hydroxypropylcellulose) (HPC)) 0 of 6; (dose: 136.0 mg/kg/injection, schedule: Q01DX005 (ip), vehicle: Klucel (hydroxypropylcellulose) (HPC)) 0 of 6.
Consider `CC(C)=CCC/C(C)=C/CC1=CC(=O)C=CC1=O`, for which the survivor count (dose: 200.0 mg/kg/injection, schedule: Q01DX009 (ip), vehicle: Klucel (hydroxypropylcellulose) (HPC)) was 0 of 6.
`COc1cc2c(c(OC)c1OC)-c1ccc(SC)c(=O)cc1C(NC(=O)c1ccccc1)CC2` (centres undefined): the survivor count runs as follows: (dose: 10.0 mg/kg/injection, schedule: Q01DX009 (ip), vehicle: Klucel (hydroxypropylcellulose) (HPC)) 6 of 6; (dose: 20.0 mg/kg/injection, schedule: Q01DX009 (ip), vehicle: Klucel (hydroxypropylcellulose) (HPC)) 5 of 6. Further, the T/C runs as follows: (dose: 2500.0 micrograms/kg/injection, schedule: Q01DX009 (ip), vehicle: Klucel (hydroxypropylcellulose) (HPC)) 130 % of control; (dose: 5000.0 micrograms/kg/injection, schedule: Q01DX009 (ip), vehicle: Klucel (hydroxypropylcellulose) (HPC)) 143 % of control.
For the compound `COc1ccc(OCCC(=O)O)cc1`, the survivor count under setting [1] was 6 of 6.
`CCCCCCCNC1CCCc2cc(OC)ccc21` (centres undefined): for the setting “dose: 200.0 mg/kg/injection, schedule: Q04DX003 (ip), vehicle: saline”, the survivor count is given as 0 of 6.
For the compound `COc1ccc(CN2CCCNCC2)cc1`, for the setting “dose: 200.0 mg/kg/injection, schedule: Q01DX009 (ip), vehicle: water”, the survivor count is given as 2 of 5.
`CC(Cl)CN1COc2ccc3ccc4c(c3c2C1)CN(CC(C)Cl)CO4` (centres undefined): the T/C was 126 % of control (dose: 200.0 mg/kg/injection, schedule: Q01DX005 (ip), vehicle: Klucel (hydroxypropylcellulose) (HPC)) and 139 % of control (dose: 400.0 mg/kg/injection, schedule: Q01DX005 (ip), vehicle: Klucel (hydroxypropylcellulose) (HPC)).
`COC1C(O)CC(OC2CC(OC3CC(O[C@@H]4C(=O)c5c(cc6cc(OC7CC(OC8CC(O)C(O)C(C)O8)C(O)C(C)O7)c(C)c(O)c6c5O)C[C@H]4[C@H](OC)C(=O)[C@@H](O)[C@@H](C)O)OC(C)C3O)OC(C)C2O)OC1C` (some centres undefined): the T/C was 133 % of control (dose: 375.0 micrograms/kg/injection, schedule: Q01DX009 (ip), vehicle: water); 138 % of control (dose: 750.0 micrograms/kg/injection, schedule: Q01DX009 (ip), vehicle: saline); 135 % of control (dose: 750.0 micrograms/kg/injection, schedule: Q01DX009 (ip), vehicle: water); 144 % of control (dose: 1500.0 micrograms/kg/injection, schedule: Q01DX009 (ip), vehicle: water). For the same compound, the survivor count was 6 of 6 (dose: 3000.0 micrograms/kg/injection, schedule: Q01DX009 (ip), vehicle: saline) and 5 of 6 (dose: 3000.0 micrograms/kg/injection, schedule: Q01DX009 (ip), vehicle: water).
Regarding `COCc1ccc(C(N)C(=O)O)cc1` (centres undefined), the survivor count (dose: 400.0 mg/kg/injection, schedule: Q01DX001 (ip), vehicle: saline with Tween-80) is 2 of 6.
`Cc1ncn2cnnc2c1C`: under setting [4], the survivor count is on record as 3 of 6.
Take `CCCCC(=S)SSC(C)(C)C`: the survivor count reads like this: (dose: 100.0 mg/kg/injection, schedule: Q01DX005 (ip), vehicle: saline with Tween-80) 4 of 6; (dose: 200.0 mg/kg/injection, schedule: Q01DX005 (ip), vehicle: saline with Tween-80) 0 of 6.
As for `CCCCC(NC(=O)CC)C(=O)O` (centres undefined), the survivor count runs as follows: (dose: 50.0 mg/kg/injection, schedule: Q01DX009 (ip), vehicle: saline) 6 of 6; (dose: 100.0 mg/kg/injection, schedule: Q01DX009 (ip), vehicle: saline) 6 of 6.
As for `O=C(NC(Cc1ccc(I)cc1)C(=O)O)c1ccc(Br)cc1` (centres undefined), the survivor count (dose: 200.0 mg/kg/injection, schedule: Q01DX005 (ip), vehicle: sodium bicarbonate) is given as 0 of 6; the survivor count (dose: 400.0 mg/kg/injection, schedule: Q01DX005 (ip), vehicle: sodium bicarbonate) is 0 of 6; the survivor count (dose: 800.0 mg/kg/injection, schedule: Q01DX005 (ip), vehicle: sodium bicarbonate) is reported as 1 of 6.
